Source: the supplement of paper PMC4683952
The other results are listed elsewhere or left out. Cut-off read from the data, not from the text of the source: active = 2 or more and inactive = the rest. This data set is noisy: repeats of one test often differ as much as different tests do.

test system: Lgr5 (MarsCy1-Lgr5-EGFP, U2OS); experiment: cell-surface Lgr5 expression (SCi1 fluorescence, background-subtracted) relative to WT DMSO (fold of DMSO control); higher = more Lgr5 at the plasma membrane; conditions: U2OS MarsCy1-Lgr5-EGFP stable; treatment time: overnight; library: ActiProbe-5K (TimTec); 25 µM

cell-surface Lgr5 expression, inactive:
Cn1cc(S(=O)(=O)Nc2ccc(Cl)c(Cl)c2)cn1 1.2, C=CCNC(=S)NC1c2ccccc2Oc2ccccc21 0.605, Cc1ncn(C23CC4CC(CC(C(=O)O)(C4)C2)C3)n1 1.09, CN(C)c1ccc(/C=N/NC(=S)N/N=C/c2ccc(N(C)C)cc2)cc1 0.865, Cn1c(=N)n(CC(=O)C23CC4CC(CC(C4)C2)C3)c2ccccc21 1.35, Nc1ccc2c(c1)COCO2 1.18, Oc1ccc(-c2cc(C(F)(F)C(F)F)on2)cc1 1.08, CC(C)OC(=O)CCNc1n[nH]c(=O)[nH]c1=O 1.25, CC1=CC(C)(C)N(S(=O)(=O)c2ccc(C)cc2)c2cc(C)ccc21 1.52, Cn1cccc1/C=N\N1CCN(C2c3ccccc3-c3ccccc32)CC1 1.42, O=S(=O)(NC1CCCCC1)c1ccc2c(c1)OCCO2 1.13, FC(F)(F)c1nc2ccccc2[nH]1 1.42, COc1cc(-c2nnc(SCc3cc(Cl)cc4c3OCOC4)o2)cc(OC)c1OC 1.36, Cc1c(Br)c(-c2nnc(C34CC5CC(CC(C5)C3)C4)o2)nn1C 1.32, O=S1(=O)CCC(SCc2nnc(-c3ccccc3)o2)C1 (stereo not given) 1.37, O=C(O)CCCCc1cccs1 1.08, O=C1CC(C(F)(F)F)=NN1c1nc2ccccc2s1 1.94, C#CCOC(=O)C1C2C=CC(C2)C1C(=O)O (stereo not given) 1.2, Brc1cc(N2CCOCC2)cc2nonc12 1.33, CN1CC=C(/C=C\c2ccco2)CC1 1.33, C=CC[C@H]1CC(C)=C[C@@H](CC=C)N1.Cl 1.15, Cn1c(=O)oc2cc(S(=O)(=O)NCC3CC4CCC3C4)c(Cl)cc21 (stereo not given) 1.22, O=C(Nc1nonc1NC(=O)C12CC3CC(CC(C3)C1)C2)C12CC3CC(CC(C3)C1)C2 1.1, S=c1[nH]nc(Cc2ccccc2)n1C1CCCCC1 1.32, O=C(N/N=C/c1ccc(Br)o1)c1cccs1 0.897, Cc1ccc2c(c1)-c1c(ss/c1=N/c1ccc(Cl)cc1Cl)C(C)(C)N2 0.96, O=C(O)CCCNC(=O)c1cc(=O)[nH]c(=O)[nH]1 1.05, N#Cc1ccc(CSCC(O)C(O)CSCc2ccc(C#N)cc2)cc1 (stereo not given) 1, OCCNC12CC3CC(CC(C3)C1)C2 1.3, O=C([O-])COc1ccc2cc(Br)ccc2c1Br.[Na+] 1.11, COc1cc(-n2cnnn2)cc(S(=O)(=O)c2ccc(Cl)cc2)c1 1.28, N#C/C(=C/c1ccc(Cl)cc1Cl)c1ccc(Cl)cc1 1.42, O=C(O)c1nn2cc(-c3n[nH]c(-c4cnc5c(Cl)c(C(=O)O)nn5c4)c3[N+](=O)[O-])cnc2c1Cl 1.15, O=C1CCC(=O)c2oc3ccc(Cl)cc3c2N1 1.12, C[C@@]1(C2(C(C[C@@H]1CC2)=O)CS(=O)(=O)O)C.N 1.06, COc1cc2c(cc1NS(=O)(=O)N1CCCC1)oc1ccccc12 1.01, Cc1nc(N)sc1C(C)(C)C 0.716, O=C(NCc1ccco1)c1cc2n(n1)C(C(F)(F)F)CC(c1ccco1)N2 (stereo not given) 1.2, c1ccc2cc(Oc3ccc4ccccc4c3)ccc2c1 1.06, Cn1c(=O)c2c(ncn2CCCO)n(C)c1=O 1.18, CSc1ccc(S(=O)(=O)Nc2ccc3c(c2)OCCO3)cc1 1.02, CCOC(=O)c1cnc(SC)nc1N(C)C 1.22, O=C1NC(=S)S/C1=C\c1ccoc1 1.13, Sc1nc(-c2ccccc2)c(-c2ccccc2)o1 0.803, CCCCC/C=C\C(=O)NC1CC1 1.11, CCCC/C(C)=N/NC(=O)c1cc(C)oc1C 1.16, O=C(c1cccs1)c1nonc1C(=O)c1cccs1 0.837, CC(C)(C)C(O)CN1CCCC1 (stereo not given) 1.17, COC(=O)C1CN(C)CCC1=O (stereo not given) 1.26, Cc1cc2n(n1)C(C(F)(F)F)CC(C)N2 (stereo not given) 1.35, Cc1nn(C)cc1C(C)NC(=O)c1c(Br)c(C)nn1C (stereo not given) 0.886, O=C1N2CCSC2=NC1(Nc1ccccn1)C(F)(F)F (stereo not given) 0.985, O=S(=O)(N1CCCC1)N1CCN(c2ccccc2F)CC1 0.854, O=C(CSc1nc2[nH]c(=O)cc(O)c2s1)Nc1nncs1 1.15, Nc1nonc1-c1noc(-c2cccnc2)n1 1.04, COCCCN1C(=O)/C(=C/c2ccco2)SC1=S 1.56, N#Cc1c(-c2ccccc2)cc(-c2ccccc2)[nH]c1=S 1.21, Cc1[nH]nc(C(F)(F)F)c1Cl 1.11, O=[N+]([O-])c1ccc(SC2CCCCC2)c(C2SCCS2)c1 1.31, Oc1cc2ccccc2cc1-c1nnc(CCl)o1 1.54, Cc1ccc(/C(N)=N/O)n1C 0.933, Cc1cc(C)c(CSc2nc(C)cc(O)n2)c(C)c1 1.04, CCSc1sc(CN(C)C)cc1/C=N\O 1.15, CCNC(=S)n1ccc(C)n1 1.06, Cc1ccc(S(=O)(=O)N2CC(C)N(S(C)(=O)=O)C2)cc1 (stereo not given) 1.25, Cc1ccsc1CN(Cc1sccc1C)CC(C)O (stereo not given) 1.1, c1cc2[nH]c3c(c2c2nonc12)CCCC3 0.367, O=C(CSc1nsc(SCC(=O)N2CCCCC2)n1)N1CCCCC1 1.09, C=CCN(CC=C)S(=O)(=O)c1ccc(F)cc1 1, O=C(O)C1Nc2c(Cl)cc(Cl)c(Cl)c2C2C=CCC12 (stereo not given) 0.887
